According to PMC9904227:
No constants are given. Whether binding was seen depends on the method and setting. In cells and extracts the contact can be indirect. Some entries that bind do so weakly or less than the wild type. For some of these results: Where a sequence is shown, tags or fusion partners need not be part of it. Each block holds one molecule with its values, some of them ahead of it.

Protein sequences, listed by entry. Tags and fused reporters are not part of them.
UniProt Q96P20: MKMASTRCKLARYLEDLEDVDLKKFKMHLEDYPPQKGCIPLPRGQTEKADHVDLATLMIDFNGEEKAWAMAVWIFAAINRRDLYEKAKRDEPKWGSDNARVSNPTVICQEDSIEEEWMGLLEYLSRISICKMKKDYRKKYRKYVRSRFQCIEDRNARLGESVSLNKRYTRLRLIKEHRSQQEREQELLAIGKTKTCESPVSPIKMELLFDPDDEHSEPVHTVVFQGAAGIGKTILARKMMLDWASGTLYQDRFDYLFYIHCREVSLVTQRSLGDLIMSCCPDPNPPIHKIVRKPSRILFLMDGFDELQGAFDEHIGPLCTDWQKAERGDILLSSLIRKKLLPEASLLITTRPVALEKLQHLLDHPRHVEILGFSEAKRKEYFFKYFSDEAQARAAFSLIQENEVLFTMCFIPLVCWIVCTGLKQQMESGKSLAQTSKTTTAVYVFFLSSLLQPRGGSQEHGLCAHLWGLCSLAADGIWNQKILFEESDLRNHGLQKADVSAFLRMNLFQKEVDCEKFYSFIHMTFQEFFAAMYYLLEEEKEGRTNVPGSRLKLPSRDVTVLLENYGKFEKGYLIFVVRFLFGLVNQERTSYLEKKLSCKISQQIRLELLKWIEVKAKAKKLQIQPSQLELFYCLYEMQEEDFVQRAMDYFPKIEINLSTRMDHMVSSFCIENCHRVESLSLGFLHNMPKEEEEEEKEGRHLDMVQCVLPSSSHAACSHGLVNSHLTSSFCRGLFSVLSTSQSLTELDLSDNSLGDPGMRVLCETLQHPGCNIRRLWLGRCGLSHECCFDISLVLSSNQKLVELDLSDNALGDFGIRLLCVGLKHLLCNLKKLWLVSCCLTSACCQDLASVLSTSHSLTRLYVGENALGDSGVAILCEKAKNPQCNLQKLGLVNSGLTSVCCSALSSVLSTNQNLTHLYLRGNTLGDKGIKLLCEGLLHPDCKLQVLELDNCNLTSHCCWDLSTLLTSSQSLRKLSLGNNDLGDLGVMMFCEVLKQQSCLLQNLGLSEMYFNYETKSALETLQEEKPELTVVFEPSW
UniProt P55060: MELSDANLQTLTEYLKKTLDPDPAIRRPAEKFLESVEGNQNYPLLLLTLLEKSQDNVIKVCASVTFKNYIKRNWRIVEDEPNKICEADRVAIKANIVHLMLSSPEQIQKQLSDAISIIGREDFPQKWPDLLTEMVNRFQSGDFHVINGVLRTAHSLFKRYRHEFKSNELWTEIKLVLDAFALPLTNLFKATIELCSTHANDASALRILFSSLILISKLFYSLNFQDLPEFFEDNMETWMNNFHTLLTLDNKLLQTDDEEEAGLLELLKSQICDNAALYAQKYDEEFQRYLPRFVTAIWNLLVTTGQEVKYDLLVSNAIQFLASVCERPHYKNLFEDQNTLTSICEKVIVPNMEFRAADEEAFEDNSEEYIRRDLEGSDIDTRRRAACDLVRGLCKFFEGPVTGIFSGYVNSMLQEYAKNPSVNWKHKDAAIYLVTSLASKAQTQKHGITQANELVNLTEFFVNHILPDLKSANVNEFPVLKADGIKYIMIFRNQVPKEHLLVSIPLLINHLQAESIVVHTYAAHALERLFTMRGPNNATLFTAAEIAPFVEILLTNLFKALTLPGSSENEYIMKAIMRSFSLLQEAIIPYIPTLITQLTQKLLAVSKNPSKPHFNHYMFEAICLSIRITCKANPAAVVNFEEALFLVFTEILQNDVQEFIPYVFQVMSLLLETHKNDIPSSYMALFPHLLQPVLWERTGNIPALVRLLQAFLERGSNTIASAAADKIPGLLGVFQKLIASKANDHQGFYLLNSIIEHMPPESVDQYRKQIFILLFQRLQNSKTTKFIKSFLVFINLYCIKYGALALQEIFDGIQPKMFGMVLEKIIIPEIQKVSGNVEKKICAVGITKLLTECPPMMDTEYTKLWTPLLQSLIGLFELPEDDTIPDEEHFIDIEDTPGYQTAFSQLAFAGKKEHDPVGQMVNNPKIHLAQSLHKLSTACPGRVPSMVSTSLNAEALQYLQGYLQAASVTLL

Columns and labels:
[1] = biological target: T1, HA-ATM kinase domain (aa 2566-3057) (UniProt Q13315); assay: co-IP; HeLa cells transfected with FLAG-NLRP3 and HA-ATM kinase domain; same lysis buffer; IP with anti-HA-agarose beads overnight at 4 °C; immunoblot
T1 sequence: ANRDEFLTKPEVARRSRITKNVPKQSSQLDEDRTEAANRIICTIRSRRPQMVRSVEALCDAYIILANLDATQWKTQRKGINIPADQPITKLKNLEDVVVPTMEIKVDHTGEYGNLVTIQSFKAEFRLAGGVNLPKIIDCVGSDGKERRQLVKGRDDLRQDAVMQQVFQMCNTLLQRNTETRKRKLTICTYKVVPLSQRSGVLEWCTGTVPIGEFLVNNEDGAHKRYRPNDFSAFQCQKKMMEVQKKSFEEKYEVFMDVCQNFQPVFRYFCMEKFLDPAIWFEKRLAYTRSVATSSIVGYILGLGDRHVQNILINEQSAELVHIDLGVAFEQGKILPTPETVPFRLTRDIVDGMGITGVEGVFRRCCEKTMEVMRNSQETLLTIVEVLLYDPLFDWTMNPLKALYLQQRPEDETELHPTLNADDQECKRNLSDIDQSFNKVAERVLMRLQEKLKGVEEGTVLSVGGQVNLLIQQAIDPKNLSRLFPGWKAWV

[2] = biological target: FLAG-NLRP3 (human) (UniProt Q96P20); assay: co-IP; HeLa cells transfected; lysis in Tris-HCl 100 mM pH 8.0, 10 mM MgCl2, 90 mM NaCl, 0.1% Triton X-100; IP with anti-FLAG M2-agarose beads overnight at 4 °C; immunoblot
[3] = biological target: FLAG-ATM (UniProt Q13315); assay: as above

Molecule: FLAG-NLRP3 (from UniProt Q96P20 1-1036)
binding [1]: binds

Molecule: mCherry-NLRP3 (from UniProt Q96P20 1-1036)
binding [3]: binds

The next lines start with the values.

binding [2]: binds
Molecule: XPO2 (from UniProt P55060 1-971)

binding [2]: binds
B1: IPO5 (protein, UniProt O00410 1-1097)
chain: MAAAAAEQQQFYLLLGNLLSPDNVVRKQAEETYENIPGQSKITFLLQAIRNTTAAEEARQMAAVLLRRLLSSAFDEVYPALPSDVQTAIKSELLMIIQMETQSSMRKKVCDIAAELARNLIDEDGNNQWPEGLKFLFDSVSSQNVGLREAALHIFWNFPGIFGNQQQHYLDVIKRMLVQCMQDQEHPSIRTLSARATAAFILANEHNVALFKHFADLLPGFLQAVNDSCYQNDDSVLKSLVEIADTVPKYLRPHLEATLQLSLKLCGDTSLNNMQRQLALEVIVTLSETAAAMLRKHTNIVAQTIPQMLAMMVDLEEDEDWANADELEDDDFDSNAVAGESALDRMACGLGGKLVLPMIKEHIMQMLQNPDWKYRHAGLMALSAIGEGCHQQMEGILNEIVNFVLLFLQDPHPRVRYAACNAVGQMATDFAPGFQKKFHEKVIAALLQTMEDQGNQRVQAHAAAALINFTEDCPKSLLIPYLDNLVKHLHSIMVLKLQELIQKGTKLVLEQVVTSIASVADTAEEKFVPYYDLFMPSLKHIVENAVQKELRLLRGKTIECISLIGLAVGKEKFMQDASDVMQLLLKTQTDFNDMEDDDPQISYMISAWARMCKILGKEFQQYLPVVMGPLMKTASIKPEVALLDTQDMENMSDDDGWEFVNLGDQQSFGIKTAGLEEKSTACQMLVCYAKELKEGFVEYTEQVVKLMVPLLKFYFHDGVRVAAAESMPLLLECARVRGPEYLTQMWHFMCDALIKAIGTEPDSDVLSEIMHSFAKCIEVMGDGCLNNEHFEELGGILKAKLEEHFKNQELRQVKRQDEDYDEQVEESLQDEDDNDVYILTKVSDILHSIFSSYKEKVLPWFEQLLPLIVNLICPHRPWPDRQWGLCIFDDVIEHCSPASFKYAEYFLRPMLQYVCDNSPEVRQAAAYGLGVMAQYGGDNYRPFCTEALPLLVRVIQSADSKTKENVNATENCISAVGKIMKFKPDCVNVEEVLPHWLSWLPLHEDKEEAVQTFNYLCDLIESNHPIVLGPNNTNLPKIFSIIAEGEMHEAIKHEDPCAKRLANVVRQVQTSGGLWTECIAQLSPEQQAAIQELLNSA
